The text below walks through data of patent publication US20250332275A1 (SUZHOU HEALIRNA BIOTECHNOLOGY CO., LTD., priority 2022, published 2025).

This data set in a line: peptide synthesis. The following applies: whole synthesis, identity by MS.

On to K(LSLLSLC)KKK(LSLLSLC), for which the “final HPLC purity” value came to 97%.
